From patent US20240182909 come the findings set out here.

Chains of the proteins cited; added tags and fusions are not shown. Residues count along the entry.
UniProt P16410, 36-223: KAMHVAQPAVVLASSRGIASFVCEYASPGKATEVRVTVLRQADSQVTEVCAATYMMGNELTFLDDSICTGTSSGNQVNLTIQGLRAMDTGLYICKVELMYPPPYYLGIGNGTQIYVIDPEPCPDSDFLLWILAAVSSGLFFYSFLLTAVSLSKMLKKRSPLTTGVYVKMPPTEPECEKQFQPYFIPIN

For part of these data: Results from cells or extracts need not show a direct contact. For part of these data: The exact form of at least one protein or probe is not confirmed. For part of these data: No signal at the amounts used counts as a negative.

Data set [1] concerns the target CTLA4 on IL-2 activated T cells (Homo sapiens) (UniProt P16410). As to the kind of experiment: activity in cells. Particulars: deoxyuridine (dU) in place of every T; significantly enhanced CD8 T cell cytolysis of HCT 15 and COLO 205 cells (LDH assay); protein on the cell surface; single-stranded DNA; dose not given here.
The target is the same in data set [2]. As to the kind of experiment: flow cytometry. The settings on record: deoxyuridine (dU) in place of every T; IL-2 (20 ng/ml) activated CD8 T cells and CD3+ T cells; SA-APC detection; protein on the cell surface; label: biotin; single-stranded DNA. For orientation: In flow cytometry, cells or beads pass a laser one at a time.
The next data set has as its system D-dimer. As to the kind of experiment: ELONA. The settings on record: deoxyuridine (dU) in place of every T; D-dimer-coated plate; purified native protein; label: biotin; single-stranded DNA.

Regarding “ACACTTTTCCCCCACCTGATCCTCAGTTCCGGAAAAGTGT [ctla4_R2_13]”, in data set [1], the “functional effect of the aptamer” value is listed as “active”. Moreover, the binding result is on record as “binds” in data set [2] and “no binding” in the data set on D-dimer.
